Results from patent US20260041793A1, “VIRAL VECTOR” (University of Sheffield, priority 2022, published 2026).

Tested on: Human HEK293T cells
Test: Expression of CPPs from the CBh promoter in HEK293T cells
Type: cell-based
Conditions: RNA polymerase II (CBh) promoter

| Substance | expression of CPP from the protein-coding CBh promoter |
| --- | --- |
| CPP1: cell permeable peptide, SRSF1 aa89-120 CPP (PRSGRGTGRGGGGGGGGGAPRGRYGPPSRRSE) | no expression |
| GSWQDLKDHMREAGGGKPIPNPLLGLDSTGGYGRKKRRQRRR [CPP2, cell permeable peptide: SRSF1 amino acids 132-144, a V5 tag and TAT amino acids 47-57] | no expression |
